Results reported in article PMC4901042.
No constants are given. Whether binding was seen depends on the method and setting. A result given as binding can be weak or reduced; the word gives no strength.

Amino acid sequences for entries named in this document (tags omitted).
UniProt O64645: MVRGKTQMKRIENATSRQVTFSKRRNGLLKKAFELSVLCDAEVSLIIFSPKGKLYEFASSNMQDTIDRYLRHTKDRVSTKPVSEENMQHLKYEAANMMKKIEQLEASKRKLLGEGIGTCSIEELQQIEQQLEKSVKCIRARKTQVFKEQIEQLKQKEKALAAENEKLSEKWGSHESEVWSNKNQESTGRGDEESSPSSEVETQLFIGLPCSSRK

Experiments:
Experiment in all cases: two-hybrid; Matchmaker Two-Hybrid System (Clontech); pGBKT7 (BD) and pGADT7 (AD) fusions cotransformed in yeast; SD/-Trp/-Leu/-His/-Ade/X-α-gal (40 μg/ml) with 5 mM 3-AT; grade by the number of clones
[1] = target: T1, AGAMOUS-LIKE 24 (AGL24) of Arabidopsis (Arabidopsis) (UniProt O82794)
T1 sequence: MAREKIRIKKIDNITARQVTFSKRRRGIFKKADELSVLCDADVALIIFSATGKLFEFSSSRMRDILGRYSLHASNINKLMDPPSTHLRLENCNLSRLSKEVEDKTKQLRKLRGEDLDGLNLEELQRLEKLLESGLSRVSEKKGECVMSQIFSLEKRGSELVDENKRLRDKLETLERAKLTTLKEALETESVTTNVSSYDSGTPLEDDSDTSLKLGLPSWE

[2] = target: SUPPRESSOR OF OVEREXPRESSION OF CONSTANS 1 (SOC1) of Arabidopsis (Arabidopsis) (UniProt O64645)
[3] = target: …3 (SEP3) of Arabidopsis (Arabidopsis) (UniProt O22456)
[4] = target: PtAGL24 (Poncirus trifoliata (trifoliate orange))

Substance	binding [1]	binding [2]	binding [3]	binding [4]
PtAGL24 (from UniProt A0A1I9ZJQ3)	binds	binds	binds	–
FLOWERING LOCUS (FLC) of Arabidopsis	no binding	–	–	–
SUPPRESSOR OF OVEREXPRESSION OF CONSTANS 1 (SOC1) of Arabidopsis (from UniProt O64645 1-214)	–	–	–	binds

Other lines, results leading:

binding [1]	binding [2]	binding [3]	binding [4]	Substance
–	–	–	binds	…3 (SEP3) of Arabidopsis (from UniProt O22456-1 1-251)
binds weakly	–	–	–	APETALA1 (AP1) of Arabidopsis, truncated version without the trans-activating C-terminus (domain or fragment)
